No constants are given. Whether binding was seen depends on the method and setting. In cells and extracts the contact can be indirect. For some assays here: Binding can be weak; no strength is given.

The chains behind the UniProt entries cited, without tags or fusion partners. Where a name states a change or a piece, a line headed by the entry shows the natural chain unless it says otherwise.
UniProt P04610: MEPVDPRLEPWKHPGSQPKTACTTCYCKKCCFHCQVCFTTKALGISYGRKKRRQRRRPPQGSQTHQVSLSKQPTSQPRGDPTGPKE
UniProt P27487: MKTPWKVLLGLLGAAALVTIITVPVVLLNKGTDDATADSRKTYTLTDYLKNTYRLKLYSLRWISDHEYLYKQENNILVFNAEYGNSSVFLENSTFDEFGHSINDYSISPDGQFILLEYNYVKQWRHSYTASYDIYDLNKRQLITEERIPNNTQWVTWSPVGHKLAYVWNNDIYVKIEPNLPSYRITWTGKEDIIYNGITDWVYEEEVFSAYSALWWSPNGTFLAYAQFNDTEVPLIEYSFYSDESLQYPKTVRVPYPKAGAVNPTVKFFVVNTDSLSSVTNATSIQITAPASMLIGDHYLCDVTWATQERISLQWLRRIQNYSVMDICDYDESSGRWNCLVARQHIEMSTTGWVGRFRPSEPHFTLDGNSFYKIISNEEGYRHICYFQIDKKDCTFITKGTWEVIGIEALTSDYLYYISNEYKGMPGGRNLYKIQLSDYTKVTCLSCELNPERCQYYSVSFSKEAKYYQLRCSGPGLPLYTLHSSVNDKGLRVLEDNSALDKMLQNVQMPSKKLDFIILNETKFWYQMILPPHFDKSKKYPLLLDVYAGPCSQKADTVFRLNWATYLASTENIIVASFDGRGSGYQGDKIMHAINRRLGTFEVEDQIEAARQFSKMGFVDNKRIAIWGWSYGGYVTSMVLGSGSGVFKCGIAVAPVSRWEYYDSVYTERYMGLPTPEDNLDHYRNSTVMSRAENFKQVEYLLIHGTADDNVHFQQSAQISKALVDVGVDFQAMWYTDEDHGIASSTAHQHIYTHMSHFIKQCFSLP

In assay [1] the target is HIV1 transcription transactivator protein (Tat-BRU) (HIV-1 (BRU)) (UniProt P04610). The assay is described as follows: co-IP; whole-cell lysates of Sf9 cells co-infected with Tat and DPPIV baculoviruses for 72 h, solubilised in PBS with 2% n-dodecyl-beta-D maltoside; anti-Tat mAb or anti-DPPIV pAb on protein-A/G-Sepharose, 4 h at 4 °C; washed with PBS pH 8.0, 0.5% n-octyl-beta-D-glucopyranoside; western blot.

The target in assay [2] is human dipeptidyl peptidase IV (human) (UniProt P27487). The assay is described as follows: co-IP; Tat/DPPIV co-expressing Sf9 cells solubilised with Triton X100.
For assay [3] the target is unchanged. The assay is described as follows: co-IP; crude membrane extracts instead of whole-cell lysates; immunoprecipitation tests.
Assay [4] shares this target. Description: condition: only mixed cell lysates of independently expressed proteins; co-IP; mixed cell lysates of independently expressed human-DPPIV and HIV1-Tat; immunoprecipitation tests.
For assay [5] the target is unchanged. Description: co-IP; whole-cell lysates of Sf9 cells co-infected with Tat and DPPIV baculoviruses for 72 h, solubilised in PBS with 2% n-dodecyl-beta-D maltoside; anti-Tat mAb or anti-DPPIV pAb on protein-A/G-Sepharose, 4 h at 4 °C; washed with PBS pH 8.0, 0.5% n-octyl-beta-D-glucopyranoside; western blot.

Turning to “human dipeptidyl peptidase IV (from UniProt P27487) (enzyme)”, the binding entry in assay [1] was “binds”.

As for “HIV1 transcription transactivator protein (Tat-BRU) (from UniProt P04610 1-86)”, the binding result in assay [2] is “no binding (only cells solubilised with Triton X100)”; in assay [3], “no binding (only crude membrane extracts)”; in assay [4] it was “no binding”; in assay [5], “binds”.

These data come from publication PMC2967539.
